Reference: article PMC7241785
These are yes or no findings as the source states them, for the method shown. Some entries that bind do so weakly or less than the wild type. For some assays here: Tags and fused reporters may be left off the sequences shown. Each block holds one binder with its values, some of them ahead of it.

How the values were obtained:
[1] = biological target: T1, GST-Flag-SASPase 28 kDa recombinant protein (human) (UniProt Q53RT3); experiment: SPR; Biacore T200, 25°C, HBS-EP+; goat anti-GST on CM5 captures GST-Flag-SASPase 28 (1 μM, flow cell 2) and GST (flow cell 1); MBP-HA S100 domains and MBP-HA injected at 3 and 6 μM; both purified
T1 sequence: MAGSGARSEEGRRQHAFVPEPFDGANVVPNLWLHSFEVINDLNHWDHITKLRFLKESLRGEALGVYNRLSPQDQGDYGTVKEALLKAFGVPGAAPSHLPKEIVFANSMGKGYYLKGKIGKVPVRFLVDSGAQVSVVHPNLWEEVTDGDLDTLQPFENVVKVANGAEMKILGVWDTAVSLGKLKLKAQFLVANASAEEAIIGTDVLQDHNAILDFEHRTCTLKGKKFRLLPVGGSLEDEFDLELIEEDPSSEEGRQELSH

[2] = biological target: T2, FLG2S100 (aa 2-95) (LexA bait) (human) (UniProt Q5D862); experiment: two-hybrid; LexA baits in pB27 screened by mating (Y187 x L40dGal4) against a random primed human reconstructed epidermis (Episkin day 13) library in pP6; selection on medium without Trp, Leu, His; 5 mM 3-aminotriazole for FLG2Nter (aa 2-213), 20 mM for FLG2S100 (aa 2-95)
T2 sequence: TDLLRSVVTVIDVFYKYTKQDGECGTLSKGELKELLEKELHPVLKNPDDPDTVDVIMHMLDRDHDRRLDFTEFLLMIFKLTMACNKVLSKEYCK

[3] = biological target: T3, FLG2Nter (aa 2-213) (LexA bait) (human) (UniProt Q5D862); experiment: as above
T3 sequence: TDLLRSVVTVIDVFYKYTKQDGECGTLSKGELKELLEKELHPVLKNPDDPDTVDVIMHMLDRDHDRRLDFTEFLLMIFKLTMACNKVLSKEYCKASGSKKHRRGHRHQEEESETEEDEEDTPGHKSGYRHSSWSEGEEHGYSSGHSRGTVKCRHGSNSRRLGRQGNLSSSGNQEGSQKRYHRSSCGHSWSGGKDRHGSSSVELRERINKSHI

[4] = biological target: T4, full length wild type SASPase 28 (LexA bait) (human) (UniProt Q53RT3); experiment: as above
T4 sequence: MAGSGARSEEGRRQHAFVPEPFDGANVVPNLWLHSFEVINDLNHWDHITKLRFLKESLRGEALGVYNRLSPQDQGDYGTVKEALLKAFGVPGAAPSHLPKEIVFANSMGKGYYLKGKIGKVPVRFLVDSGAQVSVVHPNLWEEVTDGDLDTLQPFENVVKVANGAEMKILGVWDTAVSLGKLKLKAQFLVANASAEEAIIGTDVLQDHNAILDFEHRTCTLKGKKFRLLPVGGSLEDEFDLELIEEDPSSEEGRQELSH

B1: MBP-HA TCHH S100 (aa 2-95) (domain or fragment, UniProt Q07283 2-95)
chain: SPLLRSICDITEIFNQYVSHDCDGAALTKKDLKNLLEREFGAVLRRPHDPKTVDLILELLDLDSNGRVDFNEFLLFIFKVAQACYYALGQATGL
binding [1]: no binding (tested: 6 μM)

B2: SASPase prey fragments from the human reconstructed skin library (domain or fragment, UniProt Q53RT3 97-169)
chain: RQHAFVPEPFDGANVVPNLWLHSFEVINDLNHWDHITKLRFLKESLRGEALGVYNRLSPQDQGDYGTVKEALL
binding [2]: binds
binding [3]: binds

Second part, the binder after the results:

binding [4]: binds
B3: filaggrin 2 prey fragments from the human reconstructed skin library (domain or fragment, UniProt Q5D862 2-213)
chain: TDLLRSVVTVIDVFYKYTKQDGECGTLSKGELKELLEKELHPVLKNPDDPDTVDVIMHMLDRDHDRRLDFTEFLLMIFKLTMACNKVLSKEYCKASGSKKHRRGHRHQEEESETEEDEEDTPGHKSGYRHSSWSEGEEHGYSSGHSRGTVKCRHGSNSRRLGRQGNLSSSGNQEGSQKRYHRSSCGHSWSGGKDRHGSSSVELRERINKSHI

binding [1]: no binding (tested: 6 μM)
B4: MBP-HA FLG S100 (aa 2-95) (domain or fragment, UniProt P20930 2-95)
chain: STLLENIFAIINLFKQYSKKDKNTDTLSKKELKELLEKEFRQILKNPDDPDMVDVFMDHLDIDHNKKIDFTEFLLMVFKLAQAYYESTRKENLP
